PubChem BioAssay AID588590 (National Center for Advancing Translational Sciences (NCATS), 2011)
About 4,000 (1%) of roughly 390,000 compounds were called active. Inconclusive results, whose numbers are uncertain, are shown with a selection of clear calls. Calls come from the whole dose curve; as a rule, active = well fitted inhibition curve with a large enough effect; inconclusive = small, poorly fitted or top-dose-only effect, or another doubt; inactive = no such curve, though single readings can be large or run the other way. A potency beside an inconclusive call is a rough fit, not a confirmed value.

Amino acid sequences for entries named in this document (tags omitted). A change or cut given only in a name is not applied to a line headed by its entry.
UniProt Q9UNA4: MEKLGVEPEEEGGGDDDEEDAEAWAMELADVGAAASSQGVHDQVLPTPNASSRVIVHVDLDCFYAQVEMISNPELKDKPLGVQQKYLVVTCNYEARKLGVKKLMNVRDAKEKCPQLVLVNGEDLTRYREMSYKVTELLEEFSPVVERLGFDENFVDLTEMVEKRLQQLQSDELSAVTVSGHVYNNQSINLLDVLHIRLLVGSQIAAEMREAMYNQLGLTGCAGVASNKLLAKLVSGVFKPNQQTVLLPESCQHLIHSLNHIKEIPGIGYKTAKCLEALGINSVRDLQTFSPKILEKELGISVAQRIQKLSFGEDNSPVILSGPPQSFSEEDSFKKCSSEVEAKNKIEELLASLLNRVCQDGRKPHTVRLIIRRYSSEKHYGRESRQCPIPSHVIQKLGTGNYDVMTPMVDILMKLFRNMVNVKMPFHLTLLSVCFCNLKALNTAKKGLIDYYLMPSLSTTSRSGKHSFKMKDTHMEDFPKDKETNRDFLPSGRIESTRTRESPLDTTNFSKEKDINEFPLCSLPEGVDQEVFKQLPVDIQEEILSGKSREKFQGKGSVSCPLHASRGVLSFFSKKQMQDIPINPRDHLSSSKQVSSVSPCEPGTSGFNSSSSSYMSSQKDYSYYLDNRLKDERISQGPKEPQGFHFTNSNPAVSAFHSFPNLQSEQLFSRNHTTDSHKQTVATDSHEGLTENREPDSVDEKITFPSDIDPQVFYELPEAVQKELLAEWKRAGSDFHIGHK

What follows are compounds tested against DNA polymerase iota (Homo sapiens) (UniProt Q9UNA4) (assay: qHTS for Inhibitors of Polymerase Iota). Details: Pol iota fluorescent replication assay, 10 min; series mostly up to 115 µM.
How it was run: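 Pol iota at 10 nM preincubated 15 min with compounds at room temperature; reaction started with fluorescent substrate, 50 nM final. Fluorescence read kinetically at 0 and 10 min; buffer-only wells as negative control.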
Potency is the fitted concentration of half-maximal effect.

Compound	Potency
O=C(NCCOC(=O)c1ccc(Cl)cc1)c1cccnc1	inactive
COc1ccccc1NC(=O)CSc1nc(-c2ccccc2F)nc2cc(=O)[nH]n12	inconclusive: 89.1 µM [inhibitor, single point]
NS(=O)(=O)c1ccc(-c2ccc(/C=C3\SC(=S)N(C4CCS(=O)(=O)C4)C3=O)o2)cc1 (stereo not given)	inactive
O=C(COC(=O)CCNS(=O)(=O)c1ccc2c(c1)OCCO2)NC1CCCc2ccccc21 (stereo not given)	inconclusive: 100 µM [inhibitor, single point]
CCCCC#Cc1nc(N)c2ncn([C@@H]3O[C@H](C(=O)NCC)[C@@H](O)[C@H]3O)c2n1	inactive
COc1ccc(CCNc2nc3c(-c4cccc(C)c4)nnn3c3ccccc23)cc1OC	inconclusive: 89.1 µM [inhibitor, partial curve, poor fit]
CC1CCCC(NC(=O)C2CCC(CNc3c(N4CCCCC4)c(=O)c3=O)CC2)C1C (stereo not given)	inconclusive: 44.7 µM [inhibitor, single point]
COc1ccc(-c2cc3nc(CCl)[nH]c(=O)c3s2)cc1	inconclusive: 22.4 µM [inhibitor, partial curve]
Cc1sc(-n2c(C)cc(/C=C3\SC(=S)NC3=O)c2C)c(C#N)c1C	inconclusive: 17.8 µM [inhibitor, full curve, poor fit]
CCCC1=NN2C(=N)/C(=C\c3cc(C)n(-c4cc(C)cc(C)c4)c3C)C(=O)N=C2S1	inconclusive: 31.6 µM [inhibitor, single point]
COc1ccc(Cl)cc1NC(=O)CSc1cn(CC(=O)N2CCCCCC2)c2ccccc12	inconclusive: 89.1 µM [inhibitor, single point]
Cc1ccc(C)c(Cn2nnc3c(=O)[nH]c(C(=O)NCc4ccco4)nc32)c1	active: 22.4 µM
O=c1cc(-c2ccccc2)[nH]c2[nH]n(-c3ccccc3)c(=O)c12	inconclusive: 3.98 µM [inhibitor, partial curve, poor fit]
COc1cc(CNCc2cccnc2)ccc1OCC(=O)NC1CCCCC1	inconclusive: 89.1 µM [inhibitor, single point]
O=C(N/N=C/c1ccc(N2CCOCC2)o1)c1cccc(F)c1	inconclusive: 8.91 µM [inhibitor, partial curve, poor fit]
Cc1ccc(C)c(NC(=S)N2CCCCC2CO)c1 (stereo not given)	inconclusive: 89.1 µM [inhibitor, single point]
Cc1ccc(OCC(O)CN2CCN(Cc3ccc4c(c3)OCO4)CC2)c(C)c1 (stereo not given)	inconclusive: 14.1 µM [inhibitor, full curve]
Cc1ccccc1NC1=C(C(=O)c2ccccc2)N(C)S(=O)(=O)c2ccccc21	inconclusive: 31.6 µM [inhibitor, partial curve, poor fit]
O=C(CSc1ccc(-c2nc3ccccc3[nH]2)cn1)Nc1ccc2c(c1)OCCO2	inconclusive: 10 µM [inhibitor, full curve, poor fit]
O=C(/C=C/c1ccc2c(c1)OCO2)c1ccco1	inconclusive: 56.2 µM [inhibitor, partial curve, poor fit]

Compound	Potency
COc1cccc2cc(C(=O)NCCc3c(C)[nH]c4ccc(F)cc34)c(=O)oc12	inconclusive: 89.1 µM [inhibitor, single point]
O=C(Nc1ccc(NC(=O)c2cccs2)cc1Cl)c1ccco1	inconclusive: 25.1 µM [inhibitor, partial curve, poor fit]
CCCc1cc(=O)oc2cc(OCC(=O)Nc3ccc(S(N)(=O)=O)cc3)ccc12	active: 5.01 µM
COc1ccc(NC(=O)CCS(=O)(=O)c2ccc(Br)s2)cc1	inconclusive: 31.6 µM [inhibitor, full curve]
CN(C)c1ccc(/C=C(/C(=O)c2ccc(Cl)cc2Cl)n2cncn2)cc1	inconclusive: 89.1 µM [inhibitor, partial curve, poor fit]
O=S(=O)(c1cccc2cccnc12)N1CCN(Cc2ccc3c(c2)OCO3)CC1	inconclusive: 39.8 µM [inhibitor, partial curve, poor fit]
Cc1ccc(C)c(NC(=O)CSc2nc3c(oc4ccccc43)c(=O)n2-c2ccccc2)c1	inconclusive: 79.4 µM [inhibitor, partial curve, poor fit]
CCN(CC)CCNC(=O)Cn1nc(C)c2c(C)n(-c3ccccc3)nc2c1=O	inconclusive: 89.1 µM [inhibitor, single point]
C/C=C/C(=O)Nc1cccc(C2=NOC3(C2)C[C@@H](C(N)=O)N(C(=O)c2cc([N+](=O)[O-])cc([N+](=O)[O-])c2C)C3)c1 (stereo not given in full)	inactive
CC(=O)Nc1c(Nc2ccccc2)c2ccccc2oc1=O	inconclusive: 79.4 µM [inhibitor, partial curve, poor fit]
CC(=O)N(c1ccccc1C)C1CCCC1	inactive
O=C(c1ccco1)N1CCN(Cc2cc(=O)oc3cc(O)ccc23)CC1	inconclusive: 50.1 µM [inhibitor, single point]
COc1cccc(-c2c(-c3cc(OC)cc(OC)c3)n(C)c3ccc(-c4cccc5[nH]ccc45)cc23)c1	inactive
CC1(C)CC(=O)C(C(C#Cc2ccccc2)C2=C(O)CC(C)(C)CC2=O)=C(O)C1	inconclusive: 25.1 µM [inhibitor, single point]
Cn1c(/C(C#N)=C/c2ccc(-c3ccc(S(N)(=O)=O)cc3)o2)nc2ccccc21	inconclusive: 22.4 µM [inhibitor, partial curve, poor fit]
CCc1ccc(N=C2NC(=O)/C(=C/c3ccc(OCC(=O)O)cc3)S2)cc1	inconclusive: 39.8 µM [inhibitor, partial curve, poor fit]
O=C(N/N=C/c1coc2ccccc2c1=O)c1ccncc1	inactive
O=C(COC(=O)c1ccc(=O)[nH]c1)Nc1cccc(S(=O)(=O)N2CCOCC2)c1	inactive
COc1ccc(C)cc1NC(=O)C(Cc1ccccc1)NS(=O)(=O)c1cccs1 (stereo not given)	inactive
O=C1CC(c2ccccc2)c2ccc(O)cc2O1 (stereo not given)	inconclusive: 100 µM [inhibitor, single point]

2 compounds picked at random from the list so far:
Compound	Potency
O=C(Nc1ccc(NC(=O)c2cccs2)cc1Cl)c1ccco1	inconclusive: 25.1 µM [inhibitor, partial curve, poor fit]
O=C1CC(c2ccccc2)c2ccc(O)cc2O1 (stereo not given)	inconclusive: 100 µM [inhibitor, single point]
